These are yes or no findings as the source states them, for the method shown. Binding can be weak; no strength is given. For part of these data: In cells and extracts the contact can be indirect.

The chains behind the UniProt entries cited, without tags or fusion partners. Residues count along the entry.
UniProt A0A0H2URU9, residues 14-108: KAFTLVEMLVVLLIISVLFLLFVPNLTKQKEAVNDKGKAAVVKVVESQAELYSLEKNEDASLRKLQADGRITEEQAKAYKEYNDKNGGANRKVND

Consider two substances from publication PMC5572924.

Test [1] deals with mature ComGC in competence pili preparations of S. pneumoniae T4 (S. pneumoniae TIGR4 (endogenous in T4)). As to the kind of experiment: two-dimensional PAGE (native gel, then SDS-PAGE) with immunoblot; pili preparations of competent T4 WT and T4ΔcomGC run on a 12% native gel; one lane cut and placed on a second SDS-PAGE; immunoblot with ComGC antibody.
The target in test [2] is mature ComGC of Streptococcus pneumoniae fused to the T25 or T18 fragment of Bordetella pertussis adenylate cyclase (CyaA) (S. pneumoniae). As to the kind of experiment: two-hybrid; bacterial adenylate cyclase two-hybrid (BACTH) in E. coli BTH101; T25 (pKT25) and T18 (pUT18C) fusions; beta-galactosidase activity in liquid culture in Miller units; cultures grown O/N at 30 °C.

For test [3] the target is unchanged. Description: cross-linking; E. coli BTH101 expressing T25-ComGC/T18-ComGC treated with 1% paraformaldehyde in 10 mM sodium phosphate buffer, pH 6.8, 30 min; cell extracts immunoblotted with anti-ComGC antibody.

As for “mature ComGC in competence pili preparations of S. pneumoniae T4 (from UniProt A0A0H2URU9 14-108)”, the binding entry in test [1] was “binds”. For “mature ComGC of Streptococcus pneumoniae fused to the T25 or T18 fragment of Bordetella pertussis adenylate cyclase (CyaA) (from UniProt A0A0H2URU9 14-108)”, the binding entry in test [2] and in test [3] was “binds” throughout.
